The target in test [1] is T1, 3xHA-CLSY1 (Arabidopsis) (UniProt Q9M297).
T1 sequence: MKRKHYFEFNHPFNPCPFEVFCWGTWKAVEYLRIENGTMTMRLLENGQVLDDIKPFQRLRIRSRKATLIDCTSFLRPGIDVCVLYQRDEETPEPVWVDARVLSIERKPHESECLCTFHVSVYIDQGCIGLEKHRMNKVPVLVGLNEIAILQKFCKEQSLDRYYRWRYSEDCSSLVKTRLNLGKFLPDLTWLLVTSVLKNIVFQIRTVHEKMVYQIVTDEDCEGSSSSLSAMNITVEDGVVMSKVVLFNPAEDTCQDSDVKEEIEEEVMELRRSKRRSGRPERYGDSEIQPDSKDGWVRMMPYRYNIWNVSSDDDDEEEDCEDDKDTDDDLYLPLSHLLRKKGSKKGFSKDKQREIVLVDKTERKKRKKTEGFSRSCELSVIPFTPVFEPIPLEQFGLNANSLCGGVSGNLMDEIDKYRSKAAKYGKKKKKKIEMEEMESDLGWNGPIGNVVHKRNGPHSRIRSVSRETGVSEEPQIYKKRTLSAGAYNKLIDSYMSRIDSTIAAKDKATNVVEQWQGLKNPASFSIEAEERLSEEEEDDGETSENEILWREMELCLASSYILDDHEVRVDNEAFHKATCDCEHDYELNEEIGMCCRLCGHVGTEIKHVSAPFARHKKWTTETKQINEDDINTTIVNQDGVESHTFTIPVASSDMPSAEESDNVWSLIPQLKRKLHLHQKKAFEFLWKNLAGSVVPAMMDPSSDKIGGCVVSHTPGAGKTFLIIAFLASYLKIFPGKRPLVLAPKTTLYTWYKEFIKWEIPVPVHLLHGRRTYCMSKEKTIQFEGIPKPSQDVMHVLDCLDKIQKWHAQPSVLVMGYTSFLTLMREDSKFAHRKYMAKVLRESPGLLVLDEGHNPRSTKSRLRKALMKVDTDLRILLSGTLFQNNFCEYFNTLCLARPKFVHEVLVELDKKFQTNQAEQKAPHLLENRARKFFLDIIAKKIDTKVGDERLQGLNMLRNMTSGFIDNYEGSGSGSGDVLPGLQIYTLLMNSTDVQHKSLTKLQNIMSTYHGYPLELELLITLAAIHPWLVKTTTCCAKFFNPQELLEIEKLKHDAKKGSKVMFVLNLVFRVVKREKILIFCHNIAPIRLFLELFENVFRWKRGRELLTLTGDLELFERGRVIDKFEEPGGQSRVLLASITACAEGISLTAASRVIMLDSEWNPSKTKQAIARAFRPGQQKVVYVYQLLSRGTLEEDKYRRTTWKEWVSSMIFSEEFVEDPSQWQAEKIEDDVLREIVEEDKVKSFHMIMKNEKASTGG
The test is described as follows: affinity purification with mass spectrometry; anti-HA IP (uMACS HA kit) of 3xHA-CLSY1 from flowers of nrpd1-3 lines with NRPD1-3xF WT or AAA-YPMF; LC-MS/MS.

The chains behind the UniProt entries cited, without tags or fusion partners.
UniProt Q9LQ02: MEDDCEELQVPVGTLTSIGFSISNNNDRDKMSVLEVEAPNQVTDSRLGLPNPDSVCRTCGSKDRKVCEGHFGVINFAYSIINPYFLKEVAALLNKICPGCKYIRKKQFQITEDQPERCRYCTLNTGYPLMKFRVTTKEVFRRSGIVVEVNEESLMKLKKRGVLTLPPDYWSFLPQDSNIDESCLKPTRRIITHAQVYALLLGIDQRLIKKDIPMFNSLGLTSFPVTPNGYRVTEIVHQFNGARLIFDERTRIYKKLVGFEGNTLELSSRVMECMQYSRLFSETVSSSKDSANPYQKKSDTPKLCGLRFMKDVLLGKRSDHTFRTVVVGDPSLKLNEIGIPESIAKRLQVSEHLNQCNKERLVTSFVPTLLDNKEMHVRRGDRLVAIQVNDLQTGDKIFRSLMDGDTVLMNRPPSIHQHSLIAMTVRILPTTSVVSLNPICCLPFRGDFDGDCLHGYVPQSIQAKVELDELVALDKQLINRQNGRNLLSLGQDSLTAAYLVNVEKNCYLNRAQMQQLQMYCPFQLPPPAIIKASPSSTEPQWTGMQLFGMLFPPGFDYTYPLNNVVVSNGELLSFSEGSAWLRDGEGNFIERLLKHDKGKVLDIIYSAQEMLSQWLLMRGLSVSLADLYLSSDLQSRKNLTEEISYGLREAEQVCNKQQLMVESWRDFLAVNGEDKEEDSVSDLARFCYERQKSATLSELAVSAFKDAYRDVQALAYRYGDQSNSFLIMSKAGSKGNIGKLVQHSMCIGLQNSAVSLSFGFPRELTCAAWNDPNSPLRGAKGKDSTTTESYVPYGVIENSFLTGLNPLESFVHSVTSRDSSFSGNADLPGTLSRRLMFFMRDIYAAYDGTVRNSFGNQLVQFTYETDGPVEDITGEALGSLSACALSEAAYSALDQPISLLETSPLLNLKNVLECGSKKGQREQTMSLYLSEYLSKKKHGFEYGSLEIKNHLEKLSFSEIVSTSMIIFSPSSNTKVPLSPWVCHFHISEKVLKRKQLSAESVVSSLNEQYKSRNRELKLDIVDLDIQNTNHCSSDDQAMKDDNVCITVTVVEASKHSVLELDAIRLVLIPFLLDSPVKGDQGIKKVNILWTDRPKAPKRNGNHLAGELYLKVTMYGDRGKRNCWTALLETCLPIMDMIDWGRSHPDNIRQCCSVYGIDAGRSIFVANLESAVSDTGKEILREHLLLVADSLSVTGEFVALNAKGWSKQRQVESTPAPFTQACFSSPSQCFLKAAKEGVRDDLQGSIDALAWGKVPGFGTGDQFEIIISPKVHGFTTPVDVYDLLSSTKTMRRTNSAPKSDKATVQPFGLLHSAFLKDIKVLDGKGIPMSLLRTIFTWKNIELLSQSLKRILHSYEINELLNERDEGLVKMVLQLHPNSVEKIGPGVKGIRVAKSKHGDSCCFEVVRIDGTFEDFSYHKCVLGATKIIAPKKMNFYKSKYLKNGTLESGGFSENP

The target in test [2] is T2, 3xF-tagged CLSY1 (Arabidopsis) (UniProt Q9M297).
T2 sequence: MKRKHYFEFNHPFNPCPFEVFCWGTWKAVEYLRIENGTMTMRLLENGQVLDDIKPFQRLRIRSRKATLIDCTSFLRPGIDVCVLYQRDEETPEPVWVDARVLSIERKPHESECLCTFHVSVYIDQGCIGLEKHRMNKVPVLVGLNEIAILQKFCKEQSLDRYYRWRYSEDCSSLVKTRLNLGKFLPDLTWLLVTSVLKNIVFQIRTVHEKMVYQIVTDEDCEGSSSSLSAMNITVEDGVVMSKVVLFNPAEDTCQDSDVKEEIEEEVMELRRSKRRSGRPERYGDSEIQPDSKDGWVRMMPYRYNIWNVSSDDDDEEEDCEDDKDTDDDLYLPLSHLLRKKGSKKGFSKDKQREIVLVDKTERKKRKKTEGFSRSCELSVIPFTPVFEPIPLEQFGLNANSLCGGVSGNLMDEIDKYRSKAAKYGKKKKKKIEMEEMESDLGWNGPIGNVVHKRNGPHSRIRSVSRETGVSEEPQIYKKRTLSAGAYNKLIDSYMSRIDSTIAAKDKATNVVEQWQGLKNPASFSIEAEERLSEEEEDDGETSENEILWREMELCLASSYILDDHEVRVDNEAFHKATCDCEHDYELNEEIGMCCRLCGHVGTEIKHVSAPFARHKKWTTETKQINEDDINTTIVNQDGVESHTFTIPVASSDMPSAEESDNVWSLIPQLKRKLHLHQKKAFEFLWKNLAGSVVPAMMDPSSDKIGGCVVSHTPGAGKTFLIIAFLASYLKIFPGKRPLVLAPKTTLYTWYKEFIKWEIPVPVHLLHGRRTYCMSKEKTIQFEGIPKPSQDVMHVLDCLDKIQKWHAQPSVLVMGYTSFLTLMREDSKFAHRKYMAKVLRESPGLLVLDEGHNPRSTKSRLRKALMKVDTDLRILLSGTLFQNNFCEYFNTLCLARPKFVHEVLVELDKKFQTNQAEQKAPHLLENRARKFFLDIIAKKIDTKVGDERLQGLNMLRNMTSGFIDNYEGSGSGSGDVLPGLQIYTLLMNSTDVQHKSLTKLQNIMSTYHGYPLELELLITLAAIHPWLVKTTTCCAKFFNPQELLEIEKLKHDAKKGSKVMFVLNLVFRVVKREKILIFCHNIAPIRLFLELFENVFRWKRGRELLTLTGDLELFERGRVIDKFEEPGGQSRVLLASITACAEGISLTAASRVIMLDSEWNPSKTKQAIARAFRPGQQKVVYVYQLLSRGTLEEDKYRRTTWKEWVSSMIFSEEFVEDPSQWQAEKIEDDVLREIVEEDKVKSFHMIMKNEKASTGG
The test is described as follows: affinity purification with mass spectrometry; anti-Flag M2 magnetic beads on 10 g flowers of 3xF-tagged CLSY lines in their clsy mutant backgrounds; elution with 3x-FLAG peptide; compared to non-transgenic wild-type controls.

Test [3] deals with T3, 3xF-tagged CLSY3 (Arabidopsis) (UniProt F4I8S3).
T3 sequence: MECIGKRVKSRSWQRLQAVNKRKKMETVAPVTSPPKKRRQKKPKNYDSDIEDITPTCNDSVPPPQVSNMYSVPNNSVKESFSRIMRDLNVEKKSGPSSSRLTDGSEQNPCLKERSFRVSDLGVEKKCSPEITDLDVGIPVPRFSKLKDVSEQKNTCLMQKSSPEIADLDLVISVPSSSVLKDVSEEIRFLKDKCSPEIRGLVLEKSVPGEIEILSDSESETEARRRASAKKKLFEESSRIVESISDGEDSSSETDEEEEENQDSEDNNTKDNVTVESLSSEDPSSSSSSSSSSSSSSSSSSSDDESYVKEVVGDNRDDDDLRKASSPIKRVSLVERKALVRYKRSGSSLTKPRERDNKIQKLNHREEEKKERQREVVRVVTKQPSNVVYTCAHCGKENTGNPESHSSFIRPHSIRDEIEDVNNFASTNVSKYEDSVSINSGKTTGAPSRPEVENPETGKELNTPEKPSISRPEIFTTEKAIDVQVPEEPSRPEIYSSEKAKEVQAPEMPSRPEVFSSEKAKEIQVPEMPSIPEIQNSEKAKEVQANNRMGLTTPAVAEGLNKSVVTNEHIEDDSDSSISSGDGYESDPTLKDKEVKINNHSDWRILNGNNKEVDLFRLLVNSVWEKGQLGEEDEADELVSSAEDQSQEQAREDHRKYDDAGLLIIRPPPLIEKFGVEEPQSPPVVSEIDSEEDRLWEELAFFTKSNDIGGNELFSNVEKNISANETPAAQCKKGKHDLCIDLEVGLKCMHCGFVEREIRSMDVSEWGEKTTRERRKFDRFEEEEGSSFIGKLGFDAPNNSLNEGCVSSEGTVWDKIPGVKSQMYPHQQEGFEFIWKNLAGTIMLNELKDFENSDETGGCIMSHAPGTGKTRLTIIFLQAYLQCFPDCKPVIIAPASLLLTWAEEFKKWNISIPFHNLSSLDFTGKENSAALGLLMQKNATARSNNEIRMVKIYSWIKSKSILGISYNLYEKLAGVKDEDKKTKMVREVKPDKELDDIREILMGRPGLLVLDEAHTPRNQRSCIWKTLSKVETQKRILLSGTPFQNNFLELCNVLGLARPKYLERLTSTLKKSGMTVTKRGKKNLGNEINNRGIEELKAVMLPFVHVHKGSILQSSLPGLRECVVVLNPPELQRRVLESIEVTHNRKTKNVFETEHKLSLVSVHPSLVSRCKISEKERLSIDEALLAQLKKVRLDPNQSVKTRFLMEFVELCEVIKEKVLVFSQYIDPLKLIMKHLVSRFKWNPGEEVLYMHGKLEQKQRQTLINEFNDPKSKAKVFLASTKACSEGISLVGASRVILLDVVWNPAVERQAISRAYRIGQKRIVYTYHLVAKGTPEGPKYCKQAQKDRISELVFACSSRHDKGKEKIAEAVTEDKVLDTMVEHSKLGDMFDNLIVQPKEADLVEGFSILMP
The description is as above.

Test [4] concerns the target NRPD1-3xFWT (Arabidopsis) (UniProt Q9LQ02). The test is described as follows: affinity purification with mass spectrometry; anti-FLAG magnetic beads (uMACS DYKDDDK kit) on flower extracts of nrpd1-3 T2 lines with NRPD1-3xF WT, AAA-YPMF or CYC-AAAA; three lines, two replicates each; LC-MS/MS spectral counts.

Results are given in words; binding and its absence hold for the method and conditions named. Binding seen in cells or lysates may run through a third protein. Here binding means that the protein was enriched with, or labelled near, the bait; the list need not be complete. For some of these results: A no says only that the protein was not detected with the bait. For some of these results: Tags and fused reporters may be left off the sequences shown.

B1: CLASSY 4 (CLSY4) (protein, UniProt Q9LK10 1-1132)
chain: MDMTSCVARRTRSRTESYLNSILNKSKGISGEEEDQSLGCVNSRTEKRRVNMRDACSPSPRKKKRRRRKDDDDDVVFVRTEYPEGKRDDENVGSTSGNLQSKSFDFGDRVCDFDADDRNLGCEEKASNFNPIDDDDDVVFVGTVQRENDHVEDDDNVGSASVISPRVCDFDEDDAKVSGKENPLSPDDDDDVVFLGTIAGENQHVEDVNAGSEVCDILLDDANLRGEEKTYVSDEVVSLSSSSDDEEDPLEELGTDSREEVSGEDRDSGESDMDEDANDSDSSDYVGESSDSSDVESSDSDFVCSEDEEGGTRDDATCEKNPSEKVYHHKKSRTFRRKHNFDVINLLAKSMLESKDVFKEDIFSWDKIAEVDSREDPVVRESSSEKVNEHGKPRERRSFHRVREKNHLNGESFYGGEKLCDGEETINYSTEDSPPLNLRFGCEEPVLIEKTEEEKELDSLWEDMNVALTLEGMHSSTPDKNGDMLCSKGTHDFVLDDEIGLKCVHCAYVAVEIKDISPAMDKYRPSVNDNKKCSDRKGDPLPNRLEFDASDPSSFVAPLDNIEGTVWQYVPGIKDTLYPHQQEGFEFIWKNLAGTTKINELNSVGVKGSGGCIISHKAGTGKTRLTVVFLQSYLKRFPNSHPMVIAPATLMRTWEDEVRKWNVNIPFYNMNSLQLSGYEDAEAVSRLEGNRHHNSIRMVKLVSWWKQKSILGISYPLYEKLAANKNTEGMQVFRRMLVELPGLLVLDEGHTPRNQSSLIWKVLTEVRTEKRIFLSGTLFQNNFKELSNVLCLARPADKDTISSRIHELSKCSQEGEHGRVNEENRIVDLKAMIAHFVHVHEGTILQESLPGLRDCVVVLNPPFQQKKILDRIDTSQNTFEFEHKLSAVSVHPSLYLCCNPTKKEDLVIGPATLGTLKRLRLKYEEGVKTKFLIDFIRISGTVKEKVLVYSQYIDTLKLIMEQLIAECDWTEGEQILLMHGKVEQRDRQHMIDNFNKPDSGSKVLLASTKACSEGISLVGASRVVILDVVWNPSVESQAISRAFRIGQKRAVFIYHLMVKDTSEWNKYCKQSEKHRISELVFSSTNEKDKPINNEVVSKDRILDEMVRHEKLKHIFEKILYHPKKSDMNTSFF
For B1, the binding entry in test [1] is on record as “no binding”; in test [2] it was “no binding”; in test [3], “no binding”; in test [4] it was “binds”.

The values are drawn from PMC11603163.
